Measurements taken from patent publication US20240201191A1, “CITRULLINATED PROTEINS AS BIOMARKERS AND THERAPY TARGETS FOR CANCER” (BOARD OF REGENTS, THE UNIVERSITY OF TEXAS SYSTEM, priority 2022, published 2024).
Entries after “also recorded” stand apart in the source; their conditions may differ.

Test system: cancer cell surface proteins (TACSTD2, EGFR, ERBB2 and others)
Assay: Cancer cell surface protein citrullination sites by biotin labeling and mass spectrometry
Set-up: species or system human
Details: mass spectrometry
[1] = peptide of TACSTD2 (TROP2), trypsin digest
[2] = peptide of EGFR, trypsin digest
[3] = peptide of ERBB2, trypsin digest
[4] = peptide of NECTIN4, trypsin digest
[5] = peptide of CD44 (CSPG8), trypsin digest
[6] = peptide of CEACAM5, trypsin digest
[7] = peptide of HSP90AA1 (HSP90), trypsin digest
[8] = peptide of CD99, trypsin digest
[9] = peptide of IGF1R, trypsin digest
[10] = peptide of CD22, trypsin digest

SEQ ID NO: 144 (TLVRPSEHALVDNDGLYDPDCDPEGR; MOD_RES (4)..(4) Citrullinated Arginine; MOD_RES (26)..(26) Citrullinated Arginine)
Modification (citrullination site identified) [1]: R4(Cit.);; also recorded: R26(Cit.)

SEQ ID NO: 145 (HRPTAGAFNHSDLDAELR; MOD_RES (2)..(2) Citrullinated Arginine; MOD_RES (18)..(18) Citrullinated Arginine)
Modification (citrullination site identified) [1]: R2(Cit.);; also recorded: R18(Cit.)

SEQ ID NO: 146 (FVAAVHYEQPTIQIELR; MOD_RES (17)..(17) Citrullinated Arginine)
Modification (citrullination site identified) [1]: R17(Cit.)

SEQ ID NO: 147 (AAGDVDIGDAAYYFER; MOD_RES (16)..(16) Citrullinated Arginine)
Modification (citrullination site identified) [1]: R16(Cit.)

SEQ ID NO: 148 (DIKGESLFQGRGGLDLR; MOD_RES (11)..(11) Citrullinated Arginine; MOD_RES (17)..(17) Citrullinated Arginine)
Modification (citrullination site identified) [1]: R11(Cit.);; also recorded: R17(Cit.)

SEQ ID NO: 149 (RLTAGLIAVIVVVVVALVAGMAVLVITNR; MOD_RES (1)..(1) Citrullinated Arginine)
Modification (citrullination site identified) [1]: R1(Cit.)

SEQ ID NO: 150 (LTQLGTFEDHFLSLQR; MOD_RES (16)..(16) Citrullinated Arginine)
Modification (citrullination site identified) [2]: R16(Cit.)

SEQ ID NO: 151 (TIQEVAGYVLIALNTVER; MOD_RES (18)..(18) Citrullinated Arginine)
Modification (citrullination site identified) [2]: R18(Cit.)

SEQ ID NO: 153 (FSNNPALCNVESIQWR; MOD_RES (16)..(16) Citrullinated Arginine)
Modification (citrullination site identified) [2]: R16(Cit.)

SEQ ID NO: 154 (SPSDCCHNQCAAGCTGPRESDCLVCR; MOD_RES (18)..(18) Citrullinated Arginine; MOD_RES (26)..(26) Citrullinated Arginine)
Modification (citrullination site identified) [2]: R18(Cit.);; also recorded: R26(Cit.)

SEQ ID NO: 155 (YSFGATCVKKCPRNYVVTDHGSCVR; MOD_RES (13)..(13) Citrullinated Arginine; MOD_RES (25)..(25) Citrullinated Arginine)
Modification (citrullination site identified) [2]: R13(Cit.);; also recorded: R25(Cit.)

SEQ ID NO: 156 (NYVVTDHGSCVRACGADSYEMEEDGVR; MOD_RES (27)..(27) Citrullinated Arginine)
Modification (citrullination site identified) [2]: R27(Cit.)

SEQ ID NO: 158 (CWGESSEDCQSLTR; MOD_RES (14)..(14) Citrullinated Arginine)
Modification (citrullination site identified) [3]: R14(Cit.)

SEQ ID NO: 159 (YTFGASCVTACPYNYLSTDVGSCTLVCPLHNQEVTAEDGTQR; MOD_RES (42)..(42) Citrullinated Arginine)
Modification (citrullination site identified) [3]: R42(Cit.)

SEQ ID NO: 160 (CEKCSKPCARVCYGLGMEHLR; MOD_RES (10)..(10) Citrullinated Arginine)
Modification (citrullination site identified) [3]: R10(Cit.)

SEQ ID NO: 162 (ILHNGAYSLTLQGLGISWLGLR; MOD_RES (22)..(22) Citrullinated Arginine)
Modification (citrullination site identified) [3]: R22(Cit.)

SEQ ID NO: 163 (ELGSGLALIHHNTHLCFVHTVPWDQLFR; MOD_RES (28)..(28) Citrullinated Arginine)
Modification (citrullination site identified) [3]: R28(Cit.)

SEQ ID NO: 164 (GHCWGPGPTQCVNCSQFLR; MOD_RES (19)..(19) Citrullinated Arginine)
Modification (citrullination site identified) [3]: R19(Cit.)

SEQ ID NO: 165 (GDSGEQVGQVAWAR; MOD_RES (14)..(14) Citrullinated Arginine)
Modification (citrullination site identified) [4]: R14(Cit.)

SEQ ID NO: 166 (NAVQADEGEYECR; MOD_RES (13)..(13) Citrullinated Arginine)
Modification (citrullination site identified) [4]: R13(Cit.)

SEQ ID NO: 167 (SMNGQPLTCVVSHPGLLQDQR; MOD_RES (21)..(21) Citrullinated Arginine)
Modification (citrullination site identified) [4]: R21(Cit.)

SEQ ID NO: 168 (ITHILHVSFLAEASVR; MOD_RES (16)..(16) Citrullinated Arginine)
Modification (citrullination site identified) [4]: R16(Cit.)

SEQ ID NO: 169 (GLEDQNLWHIGR; MOD_RES (12)..(12) Citrullinated Arginine)
Modification (citrullination site identified) [4]: R12(Cit.)

SEQ ID NO: 170 (VDGDTLGFPPLTTEHSGIYVCHVSNEFSSR; MOD_RES (30)..(30) Citrullinated Arginine)
Modification (citrullination site identified) [4]: R30(Cit.)

SEQ ID NO: 171 (FAGVFHVEKNGRYSISR; MOD_RES (17)..(17) Citrullinated Arginine)
Modification (citrullination site identified) [5]: R17(Cit.)

SEQ ID NO: 172 (DGTRYVQKGEYR; MOD_RES (4)..(4) Citrullinated Arginine; MOD_RES (12)..(12) Citrullinated Arginine)
Modification (citrullination site identified) [5]: R4(Cit.);; also recorded: R12(Cit.)

SEQ ID NO: 173 (TNPEDIYPSNPTDDDVSSGSSSER; MOD_RES (24)..(24) Citrullinated Arginine)
Modification (citrullination site identified) [5]: R24(Cit.)

SEQ ID NO: 174 (VDGNRQIIGYVIGTQQATPGPAYSGR; MOD_RES (5)..(5) Citrullinated Arginine; MOD_RES (26)..(26) Citrullinated Arginine)
Modification (citrullination site identified) [6]: R5(Cit.);; also recorded: R26(Cit.)

SEQ ID NO: 175 (SDLVNEEATGQFR; MOD_RES (13)..(13) Citrullinated Arginine)
Modification (citrullination site identified) [6]: R13(Cit.)

SEQ ID NO: 176 (NDTASYKCETQNPVSAR; MOD_RES (17)..(17) Citrullinated Arginine)
Modification (citrullination site identified) [6]: R17(Cit.)

SEQ ID NO: 177 (RSDSVILNVLYGPDAPTISPLNTSYR; MOD_RES (1)..(1) Citrullinated Arginine; MOD_RES (26)..(26) Citrullinated Arginine)
Modification (citrullination site identified) [6]: R1(Cit.);; also recorded: R26(Cit.)

SEQ ID NO: 178 (QDRTLTIVDTGIGMTK; MOD_RES (3)..(3) Citrullinated Arginine)
Modification (citrullination site identified) [7]: R3(Cit.)

SEQ ID NO: 179 (VTVITKHNDDEQYAWESSAGGSFTVRTDTGEPMGRGTK; MOD_RES (26)..(26) Citrullinated Arginine; MOD_RES (35)..(35) Citrullinated Arginine)
Modification (citrullination site identified) [7]: R26(Cit.);; also recorded: R35(Cit.)

SEQ ID NO: 181 (SLTNDWEDHLAVKHFSVEGQLEFR; MOD_RES (24)..(24) Citrullinated Arginine)
Modification (citrullination site identified) [7]: R24(Cit.)

SEQ ID NO: 182 (RVFIMDNCEELIPEYLNFIR; MOD_RES (1)..(1) Citrullinated Arginine; MOD_RES (20)..(20) Citrullinated Arginine)
Modification (citrullination site identified) [7]: R1(Cit.);; also recorded: R20(Cit.)

SEQ ID NO: 183 (GVVDSEDLPLNISR; MOD_RES (14)..(14) Citrullinated Arginine)
Modification (citrullination site identified) [7]: R14(Cit.)

SEQ ID NO: 186 (AQALRDNSTMGYMAAK; MOD_RES (5)..(5) Citrullinated Arginine)
Modification (citrullination site identified) [7]: R5(Cit.)

SEQ ID NO: 187 (SRAPVNWYQEK; MOD_RES (2)..(2) Citrullinated Arginine)
Modification (citrullination site identified) (peptide of HSP90AA1 (HSP90) Isoform 2, trypsin digest): R2(Cit.)

SEQ ID NO: 188 (KPSAGDDFDLGDAVVDGENDDPRPPNPPKPMPNPNPNHPSSSGSFSDADLADGVSGGEGK; MOD_RES (23)..(23) Citrullinated Arginine)
Modification (citrullination site identified) [8]: R23(Cit.)

SEQ ID NO: 189 (ENAEQGEVDMESHRNANAEPAVQR; MOD_RES (14)..(14) Citrullinated Arginine; MOD_RES (24)..(24) Citrullinated Arginine)
Modification (citrullination site identified) [8]: R14(Cit.);; also recorded: R24(Cit.)

SEQ ID NO: 190 (VAGLESLGDLFPNLTVIRGWK; MOD_RES (18)..(18) Citrullinated Arginine)
Modification (citrullination site identified) [9]: R18(Cit.)

SEQ ID NO: 191 (MEEVTGTKGRQSKGDINTR; MOD_RES (10)..(10) Citrullinated Arginine; MOD_RES (19)..(19) Citrullinated Arginine)
Modification (citrullination site identified) [9]: R10(Cit.);; also recorded: R19(Cit.)

SEQ ID NO: 192 (GRQSKGDINTRNNGER; MOD_RES (11)..(11) Citrullinated Arginine; MOD_RES (16)..(16) Citrullinated Arginine)
Modification (citrullination site identified) [9]: R11(Cit.);; also recorded: R16(Cit.)

SEQ ID NO: 193 (YGSQVEDQRECVSRQEYR; MOD_RES (9)..(9) Citrullinated Arginine; MOD_RES (18)..(18) Citrullinated Arginine)
Modification (citrullination site identified) [9]: R9(Cit.);; also recorded: R18(Cit.)

SEQ ID NO: 194 (SPLSTLTVYYSPETIGR; MOD_RES (17)..(17) Citrullinated Arginine)
Modification (citrullination site identified) [10]: R17(Cit.)

SEQ ID NO: 195 (YCCQVSNDVGPGR; MOD_RES (13)..(13) Citrullinated Arginine)
Modification (citrullination site identified) [10]: R13(Cit.)

SEQ ID NO: 196 (LDQEVQEETQGRFRLLGDPSR; MOD_RES (14)..(14) Citrullinated Arginine; MOD_RES (21)..(21) Citrullinated Arginine)
Modification (citrullination site identified) (peptide of CD33, trypsin digest): R14(Cit.);; also recorded: R21(Cit.)
